Read-outs that look alike come from different tables or passages of the source.
Assays:
C57Bl/6 male mice = assay: Ex vivo carotid artery vasodilatory responses after NMN supplementation in drinking water; details: NMN treatment vs controls
[1] = assay type: in vivo, mice
From the text: Young (4-8 months) C57Bl/6 male mice were purchased from Charles River and old (26-28 months) C57Bl/6 male mice were obtained from the National Institute on Aging rodent colony. Mice were fed normal rodent chow ad libitum for the duration of the study. After an acclimation period of 2 weeks, the young and old mice were divided into two subgroups: control animals (YC, OC) continued on normal drinking water and the other animals (YNMN, ONMN) received nicotinamide mononucleotide (NMN; Sigma-Aldrich Corp., St. Louis, Mo., USA) supplementation in the drinking water (240 mg/kg/day) for 8 weeks. All mice were housed in an animal care facility at the University of Colorado Boulder on a 12:12 hour light-dark cycle. All animal procedures conformed to the Guide to the Care and Use of Laboratory Animals (NIH publication No. 85-23, revised 1996) and were approved by the UCB Animal Care and Use Committee.
Data are presented as mean±SEM in text, figures and tables. All analyses were performed with SPSS. A one-way ANOVA (Analysis of Variance) was used to analyze morphological characteristics, maximum EDD, NO-mediated EDD, EPR spectroscopy, aPWV, elastic modulus, Western blots, and immunohistochemistry. Within-group differences in the maximal EDD dose response to acetylcholine in the absence vs. presence of TEMPOL was determined using two-factor (group×treatment) repeated-measures ANOVA. When a significant main effect was observed, Tukey post-hoc tests were used to determine specific pairwise differences. Significance was set at p<0.05.

In the case of `NC(=O)c1ccc[n+]([C@@H]2O[C@H](COP(=O)([O-])O)[C@@H](O)[C@H]2O)c1` [NMN, nicotinamide mononucleotide], the “effect on baseline carotid artery diameters” value (C57Bl/6 male mice) is reported as “no significant effect”, the “age-related increase in heart mass and decrease in fat and muscle mass” value ([1]; NMN treatment vs controls) is reported as “not altered” and the “Gastroc mass (gastrocnemius)” value ([1]; old NMN-treated mice (ONMN)) is reported as 126 ± 2 mg. The Heart mass ([1]; old NMN-treated mice (ONMN)) was 182 ± 8 mg, the “Quad mass (quadriceps)” value ([1]; old NMN-treated mice (ONMN)) was 146 ± 6 mg and the “SubQ fat mass (subcutaneous fat)” value ([1]; old NMN-treated mice (ONMN)) was 201 ± 23 mg. The “WAT mass (white adipose tissue)” value ([1]; old NMN-treated mice (ONMN)) was 430 ± 50 mg, the “Gastroc mass (gastrocnemius)” value ([1]; young NMN-treated mice (YNMN)) was 148 ± 8 mg and the Heart mass ([1]; young NMN-treated mice (YNMN)) was 139 ± 7 mg. For the same compound, the “Quad mass (quadriceps)” value ([1]; young NMN-treated mice (YNMN)) was 185 ± 6 mg, the “SubQ fat mass (subcutaneous fat)” value ([1]; young NMN-treated mice (YNMN)) was 252 ± 16 mg and the “WAT mass (white adipose tissue)” value ([1]; young NMN-treated mice (YNMN)) was 600 ± 35 mg.
